Data reported in PubChem BioAssay AID540276 (National Center for Advancing Translational Sciences (NCATS), 2011).
About 5,400 (1.8%) of roughly 300,000 compounds were called active. Inconclusive results, whose numbers are uncertain, are shown with a selection of clear calls. Calls follow the shape of the full dose curve; tested in HEK293 cells. Potencies beside an inconclusive call are fits to weak or partial responses and may not hold up.

experiment: qHTS for inhibitors of binding or entry into cells for Marburg Virus; details: Marburg virus pseudotyped entry inhibition, cell reporter; activity change, negative = inhibition: at 37.8 µM (top of the series) unless noted
% is scaled to controls: 0 for no effect and ±100 for the full control effect; potency is read from the fitted curve at half-maximal effect.

Row | SMILES | Potency | activity change, negative = inhibition
1 | C=CCNC(=O)c1c(Br)cnn1-c1ccc(C)cc1 | inconclusive: 1.26 µM [activator, partial curve, poor fit] | 
2 | COc1ccc(S(=O)(=O)N2CCN(c3cc(-c4ccccc4)nc4ncnn34)CC2)cc1 | inconclusive: 29.1 µM [inhibitor, single point] | 
3 | Cc1nc(-n2nc(C)c(Cc3ccccc3Cl)c2C)sc1C(=O)Nc1ccccc1F |  | inactive: 12.9% [at 46.1 µM]
4 | CCOCCCNC(=O)c1c(N)n(-c2ccc3c(c2)OCO3)c2nc3ccccc3nc12 | inconclusive: 35.5 µM [inhibitor, partial curve, poor fit] | 
5 | CC1(C)CC(NC(=O)Cc2ccccc2[N+](=O)[O-])CC(C)(C)N1 | inconclusive: 3.55 µM [activator, single point] | 
6 | CCN(CC)S(=O)(=O)c1ccc(Oc2ccccc2)c(N)c1 | inconclusive: 35.5 µM [inhibitor, single point] | 
7 | O=C(CCl)N1c2ccccc2OCC1c1ccccc1 (centres undefined) |  | inactive: 19.5%
8 | COc1cc(CNC(=O)c2ccc(Cn3nc(C)c(Cl)c3C)o2)cc(OC)c1 | inconclusive: 32.6 µM [inhibitor, single point] | 
9 | Cc1ccccc1Nc1c(-c2ccccn2)nc2c(C)cccn12 | inconclusive: 11.2 µM [inhibitor, partial curve, poor fit] | 
10 | Cc1cc(NC(=O)CSc2nccn2-c2cccc(C)c2C)no1 | inconclusive: 7.08 µM [inhibitor, partial curve, poor fit] | 
11 | O=Cc1ccc(-c2ccc(Cl)cc2Cl)[nH]1 |  | inactive: -21.4%
12 | COC(=O)NC(CC(C)=O)c1ccc(F)cc1 (centres undefined) | inconclusive: 6.68 µM [activator, single point] | 
13 | O=C(NCc1ccco1)c1ccc2c(c1)C(=O)c1ccccc1-2 | inconclusive: 16.4 µM [inhibitor, single point] | 
14 | Sc1oc(-c2ccccc2)cc1C=Nc1ccccc1 |  | inactive: -25%
15 | CCc1sc(C(=O)Nc2nccs2)cc1C | inconclusive: 3.98 µM [activator, single point] | 
16 | CC(C)Cn1c(-c2ccco2)nc2c(c(=O)c3ccccc3n2C)c1=O |  | inactive: -5.61%
17 | COc1cccc(/C=C/c2[nH]c(=O)[nH]c(=O)c2[N+](=O)[O-])c1O |  | inactive: 4.7%
18 | COc1ccc(CNC(=O)Cc2c(C)c3cc4c(C)coc4c(C)c3oc2=O)cc1 | inconclusive: 35.5 µM [inhibitor, single point] | 
19 | Cc1cc(C)c(C)c(S(=O)(=O)Nc2cccc(S(=O)(=O)Nc3ccccc3C(=O)O)c2)c1C | inconclusive: 35.5 µM [inhibitor, single point] | 
20 | CCOc1ccc(NC(=O)CCN2CCN(c3ccccc3)CC2)cc1 | inconclusive: 25.1 µM [inhibitor, single point] | 
21 | O=C(COC(=O)c1cccc(Br)c1)Nc1cccc2c1C(=O)c1ccccc1C2=O | inconclusive: 12.6 µM [inhibitor, single point] | 
22 | CC(C)(C)c1nc2c(C#N)c(-c3ccc(Cl)cc3)ccn2n1 | inconclusive: 20 µM [inhibitor, single point] | 

Row | SMILES | Potency | activity change, negative = inhibition
23 | O=c1oc(-c2cccs2)nc2scc(-c3cccs3)c12 |  | inactive: -6.07%
24 | CCOc1ccccc1NC(=O)COC(=O)c1nc2nccc(C)n2n1 |  | inactive: 6.73% [at 46.1 µM]
25 | COc1ccc(Nc2oc(-c3ccc(Cl)cc3)nc2C#N)cc1 | inconclusive: 17.8 µM [inhibitor, single point] | 
26 | CCOC(=O)c1cc(-c2ccccc2)sc1NC(=O)C(C)C |  | inactive: 7.23%
27 | COc1cccc(-c2nc(CS(=O)(=O)CC(=O)Nc3ccccc3C)c(C)o2)c1 | inconclusive: 11.2 µM [inhibitor, single point] | 
28 | Cc1ccc(S(=O)(=O)/N=S(/C)c2ccccc2)cc1 (centres undefined) | inconclusive: 1.12 µM [inhibitor, full curve, poor fit] | 
29 | CCOC(=O)c1c(NC(=O)Cc2cccs2)sc2c1CCCC2 | inconclusive: 35.5 µM [inhibitor, single point] | 
30 | COc1ccc(C(=O)NC(=S)Nc2ccc(CN3CCCCC3)cc2)cc1Cl | inconclusive: 31.6 µM [inhibitor, single point] | 
31 | CC(C)c1cc(NCC2CCCO2)n2c(nc3ccccc32)c1C#N (centres undefined) | inconclusive: 29.1 µM [inhibitor, single point] | 
32 | COc1ccc(NC(=O)c2nc3ccccc3s2)cc1 | inconclusive: 1.26 µM [inhibitor, full curve, poor fit] | 
33 | COc1ccc(S(=O)(=O)NCc2ccccn2)cc1NC(=O)c1ccc(Cl)cc1 | inconclusive: 7.94 µM [inhibitor, partial curve, poor fit] | 
34 | Cc1ccc(C)c(S(=O)(=O)N/N=C2/CCCc3ccccc32)c1 | inconclusive: 10 µM [inhibitor, partial curve, poor fit] | 
35 | Cc1ccc(S(=O)(=O)NCCC(=O)NCCc2ccccc2)cc1 | inconclusive: 10 µM [inhibitor, single point] | 
36 | COc1ccccc1Nc1nc(N)nc(CN2CCCCCC2)n1 |  | inactive: 5.22%
37 | COc1ccc(CN=C2NC(=O)CC(C(=O)Nc3ccccc3C)S2)cc1 (centres undefined) | inconclusive: 31.6 µM [inhibitor, single point] | 
38 | CC1CCC(NCC(=O)Nc2cccc(S(N)(=O)=O)c2)CC1 (centres undefined) | inconclusive: 10 µM [inhibitor, partial curve, poor fit] | 
39 | Cc1ccccc1OCc1nc2ccccc2c(=O)n1/N=C/c1ccco1 | inactive | 
40 | Cc1ccc2c(c1)c1c(c(=O)n(-c3cccc(Cl)c3)c(=O)n1CC(=O)Nc1c(C)cccc1C)n2C |  | inactive: 3.78% [at 46.1 µM]
41 | O=C(Nc1cc2c(cc1[N+](=O)[O-])OCCO2)c1cccnc1 | inconclusive: 0.251 µM [activator, full curve, poor fit] | 
42 | CCOC(=O)c1ccccc1NC(=O)CSc1nc2cn(CC)nc2c(=O)n1Cc1ccc(Cl)cc1 |  | inactive: -14.9% [at 46.1 µM]
43 | CCOc1ccc(NC(=O)CC2C(=O)N(C)C(=S)N2Cc2ccc3c(c2)OCO3)cc1 (centres undefined) | inconclusive: 22.4 µM [inhibitor, partial curve, poor fit] | 
44 | CCN(CC)S(=O)(=O)c1cccc(C(=O)N[C@H](C(=O)NCc2ccccc2F)C(C)C)c1 |  | inactive: -28.7%

Sorted by count of non-hydrogen atoms (smallest number first): 3 of the compounds above.
Row | SMILES | Potency | activity change, negative = inhibition
28 | Cc1ccc(S(=O)(=O)/N=S(/C)c2ccccc2)cc1 (centres undefined) | inconclusive: 1.12 µM [inhibitor, full curve, poor fit] | 
14 | Sc1oc(-c2ccccc2)cc1C=Nc1ccccc1 |  | inactive: -25%
21 | O=C(COC(=O)c1cccc(Br)c1)Nc1cccc2c1C(=O)c1ccccc1C2=O | inconclusive: 12.6 µM [inhibitor, single point] | 
